The supplement of paper PMC6445147
Values scatter widely in this assay.

B1: human tRNA-Pro; a variant is named by its letters at N, in order (parent)
chain: GGCTCGTTGGTCTAGNGGTATGATTCTCGCTTAGGGTGCGAGAGGTCCCGGGTTCNNATCCCGGACGAGCCC

Tests used:
[1] = variants of: B1; experiment: tRNA Pol-III promoter activity, log2 (circRNA frequency / plasmid DNA frequency) (log2 ratio); higher = stronger promoter activity; conditions: HEK293T; construct: no Pol-II promoter ((-)CMV library)
[2] = variants of: B1; experiment: tRNA 3' processing efficiency (processed reads / all reads, maximum-likelihood estimate) (fraction); higher = more efficient 3' processing; conditions: HEK293T; construct: no Pol-II promoter ((-)CMV library)
[3] = variants of: B1; experiment: tRNA 5' processing efficiency (processed reads / all reads, maximum-likelihood estimate) (fraction); higher = more efficient 5' processing; conditions: HEK293T; construct: CMV Pol-II promoter ((+)CMV library, decapped)

Row | Variant | tRNA Pol-III promoter activity (log2) [1] | tRNA 3' processing efficiency [2] | tRNA 5' processing efficiency [3]
1 | GAA A14C A20T A58C T59C | 4.62 | 0.13 | 
2 | GGG G18T | 1.07 | 0.25 | 
3 | TTA A20G A58C | 5.91 | 0.73 | 
4 | GAA T19C T53G A58G | 3.13 | 0.25 | 
5 | CTG T19A | 5.93 | 0.25 | 
6 | GAG G17A G18T | 4.03 | 0.25 | 
7 | GAT T8C A58C | 3.52 | 0.43 | 
8 | GAA A14T T53G | 1.06 | 0.31 | 
9 | GAA G15A T54A A58G | 3.05 | 0.33 | 
10 | GGA A14C A58G T59G | 4.51 | 0.5 | 
11 | GAA A14G G18A A20T | 3.94 | 0.25 | 
12 | AAA A14T T19G A58T | 5.53 | 0.5 | 
13 | GAT A14C T59G | 3.34 | 0.33 | 
14 | GAA A20G | -3.93 | 0.78 | 0.29
15 | AAG | 2.89 | 0.45 | 0.25
16 | ACG A58T | 3.68 | 0.2 | 
17 | GAA T8A A14C G15C T53G | 6.25 | 0.4 | 
18 | GAG A14T T53A | 3.62 | 0.25 | 
19 | CAA A58T | 0.761 | 0.3 | 

Row | Variant | tRNA Pol-III promoter activity (log2) [1] | tRNA 3' processing efficiency [2] | tRNA 5' processing efficiency [3]
20 | GGT T53G | 3.94 | 0.25 | 
21 | GGA T19G C55A | 2.47 | 0.25 | 
22 | GAA G9A A58T T59A | 5.6 | 0.58 | 
23 | AAA T53G A58G | 4.97 | 0.06 | 
24 | GAA G18A A58T T59G | 3.51 | 0.22 | 
25 | TAA G15C T54A | 3.45 | 0.25 | 
26 | GAC T19G A20T | 2.55 | 0.2 | 
27 | CAT G9A G18C T54A T59A | 4.36 | 0.75 | 
28 | GGC T19A | 3.41 | 0.57 | 
29 | GTA A20G A58C | 3.67 | 0.2 | 
30 | GCA A58C | 1.65 | 0.47 | 
31 | GAG A14G T59C | 4.93 | 0.15 | 
32 | GTA G9T G15T C55T T59C | 3.38 | 0.71 | 
33 | AAA T8C G9A G15T G18T A58G | 6.62 | 0.89 | 
34 | GAA T53C T59C | 2.3 | 0.45 | 
35 | GGC G17T | 1.54 | 0.25 | 
36 | AAT T8G G17A A20C T54G T59C | 5.2 | 0.67 | 
37 | AAG T19A A20T | 5.93 | 0.38 | 
38 | GAG T54A A58T | 2.48 | 0.38 | 

Row | Variant | tRNA Pol-III promoter activity (log2) [1] | tRNA 3' processing efficiency [2] | tRNA 5' processing efficiency [3]
39 | CAG A58G | 4.34 | 0.36 | 
40 | GGA G9A T53G | 4.35 | 0.23 | 
41 | CCA G9T A58T | 6.39 | 0.64 | 
42 | TTA T53C | 3.74 | 0.57 | 
43 | GTA T19A A58T | 4.73 | 0.35 | 
44 | AGA T19G C55T | 3.94 | 0.25 | 
45 | GAA G17T C55G | -0.479 | 0.5 | 
46 | CAA A14T A58T | 4.03 | 0.4 | 
47 | GAA G15A T19A T53A | 4.25 | 0.4 | 
48 | GTA A20T | 1.68 | 0.4 | 0.5
49 | GGC A14T | 2.68 | 0.5 | 
50 | GAT A14G G18A T19G | 6.75 | 0.05 | 
51 | GAT T53C A58T | 1.93 | 0.5 | 
52 | GAT A14G T19A | 3.81 | 0.5 | 
53 | GAA G15A A58G T59A | 3.09 | 0.4 | 
54 | GAA G17T A33T C55G | 4.93 | 0.5 | 
55 | GAG G9A T19G A58C | 6.03 | 0.25 | 
56 | GGA A58C T59G | 4.03 | 0.13 | 
57 | AAA A20G T53A | 4.64 | 0.38 | 

Some entries already given with just tRNA 5' processing efficiency [3] and tRNA Pol-III promoter activity (log2) [1].
Row	Variant	tRNA 5' processing efficiency [3]	tRNA Pol-III promoter activity (log2) [1]
39	CAG A58G		4.34
40	GGA G9A T53G		4.35
41	CCA G9T A58T		6.39
42	TTA T53C		3.74
